No constants are given. Whether binding was seen depends on the method and setting. In cells and extracts the contact can be indirect. A yes stands for co-enrichment or nearness to the bait. Other partners may have been found. For part of these data: Tags and fused reporters may be left off the sequences shown. Each block holds one molecule with its values, some of them ahead of it.
Tests used:
[1] = biological target: Kog1-FLAG (S. cerevisiae) (UniProt P38873); assay: affinity purification with mass spectrometry; Kog1-FLAG captured on anti-FLAG beads from lysate treated with the cleavable crosslinker DSP and 1% digitonin; mock IP from a Kog1-HA strain; 11 experiments in nine conditions (log phase, stress and starvation); crosslinks broken before mass …
GFP-Ait1 (S. cerevisiae) = biological target: T1, GFP-Ait1 (S. cerevisiae) (UniProt Q12301); assay: affinity purification with mass spectrometry; GFP-Ait1 captured on anti-GFP beads from lysate treated with DSP crosslinker and digitonin, as for Kog1; four experiments
T1 sequence: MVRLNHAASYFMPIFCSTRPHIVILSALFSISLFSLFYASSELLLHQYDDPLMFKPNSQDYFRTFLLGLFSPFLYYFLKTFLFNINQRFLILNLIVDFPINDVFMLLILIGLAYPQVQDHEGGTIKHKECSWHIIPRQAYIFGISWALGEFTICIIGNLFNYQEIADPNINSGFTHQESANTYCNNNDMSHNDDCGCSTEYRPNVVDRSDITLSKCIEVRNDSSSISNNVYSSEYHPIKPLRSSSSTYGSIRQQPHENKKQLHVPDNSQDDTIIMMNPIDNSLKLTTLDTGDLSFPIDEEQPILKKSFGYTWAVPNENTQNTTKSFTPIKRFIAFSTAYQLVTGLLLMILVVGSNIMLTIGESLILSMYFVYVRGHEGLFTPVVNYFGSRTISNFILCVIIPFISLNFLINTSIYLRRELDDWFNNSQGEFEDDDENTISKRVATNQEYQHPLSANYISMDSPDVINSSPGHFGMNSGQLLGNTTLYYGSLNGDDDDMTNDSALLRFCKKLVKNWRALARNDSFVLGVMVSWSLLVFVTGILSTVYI

Chains of the proteins cited; added tags and fusions are not shown.
UniProt P38873: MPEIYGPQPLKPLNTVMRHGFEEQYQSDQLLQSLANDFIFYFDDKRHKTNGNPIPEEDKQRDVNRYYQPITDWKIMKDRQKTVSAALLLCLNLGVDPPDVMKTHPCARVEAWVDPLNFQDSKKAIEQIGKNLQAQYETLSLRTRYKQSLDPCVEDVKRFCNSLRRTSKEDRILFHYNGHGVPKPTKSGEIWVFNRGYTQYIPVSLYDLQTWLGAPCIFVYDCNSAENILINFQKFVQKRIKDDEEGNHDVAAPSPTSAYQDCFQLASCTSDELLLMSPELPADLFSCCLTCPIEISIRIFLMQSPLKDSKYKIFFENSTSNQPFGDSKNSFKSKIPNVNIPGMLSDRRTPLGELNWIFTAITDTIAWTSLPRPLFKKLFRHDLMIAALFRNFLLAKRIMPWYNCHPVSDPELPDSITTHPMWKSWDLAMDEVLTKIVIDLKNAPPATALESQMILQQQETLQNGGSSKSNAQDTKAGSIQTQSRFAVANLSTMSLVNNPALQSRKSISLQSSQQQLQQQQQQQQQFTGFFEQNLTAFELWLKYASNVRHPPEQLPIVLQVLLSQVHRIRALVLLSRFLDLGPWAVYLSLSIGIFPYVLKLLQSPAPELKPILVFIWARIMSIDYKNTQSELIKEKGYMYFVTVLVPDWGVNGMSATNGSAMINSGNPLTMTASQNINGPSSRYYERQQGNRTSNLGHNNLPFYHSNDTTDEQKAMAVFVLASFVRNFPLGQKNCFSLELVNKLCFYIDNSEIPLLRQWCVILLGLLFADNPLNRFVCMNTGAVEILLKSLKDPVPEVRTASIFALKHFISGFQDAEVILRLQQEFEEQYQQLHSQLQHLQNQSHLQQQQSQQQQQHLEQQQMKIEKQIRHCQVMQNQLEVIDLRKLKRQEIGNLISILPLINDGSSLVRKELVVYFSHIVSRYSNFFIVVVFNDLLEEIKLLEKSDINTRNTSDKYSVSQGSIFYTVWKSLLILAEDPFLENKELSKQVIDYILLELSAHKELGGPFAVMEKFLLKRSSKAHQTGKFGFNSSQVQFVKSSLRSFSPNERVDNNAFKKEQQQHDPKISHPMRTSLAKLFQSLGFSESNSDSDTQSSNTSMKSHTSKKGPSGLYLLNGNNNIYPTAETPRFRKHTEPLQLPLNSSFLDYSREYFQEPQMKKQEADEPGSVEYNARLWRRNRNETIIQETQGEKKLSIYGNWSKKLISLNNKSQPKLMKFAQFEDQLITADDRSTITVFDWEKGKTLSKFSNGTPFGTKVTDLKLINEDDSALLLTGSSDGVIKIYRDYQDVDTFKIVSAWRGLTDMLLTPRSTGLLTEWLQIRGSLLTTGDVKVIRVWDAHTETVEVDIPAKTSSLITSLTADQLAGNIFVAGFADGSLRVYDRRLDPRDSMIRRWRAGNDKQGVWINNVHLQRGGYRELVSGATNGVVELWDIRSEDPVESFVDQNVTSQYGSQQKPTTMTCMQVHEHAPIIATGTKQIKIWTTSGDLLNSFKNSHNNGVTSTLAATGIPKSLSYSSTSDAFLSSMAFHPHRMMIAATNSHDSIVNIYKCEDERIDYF
UniProt P35169: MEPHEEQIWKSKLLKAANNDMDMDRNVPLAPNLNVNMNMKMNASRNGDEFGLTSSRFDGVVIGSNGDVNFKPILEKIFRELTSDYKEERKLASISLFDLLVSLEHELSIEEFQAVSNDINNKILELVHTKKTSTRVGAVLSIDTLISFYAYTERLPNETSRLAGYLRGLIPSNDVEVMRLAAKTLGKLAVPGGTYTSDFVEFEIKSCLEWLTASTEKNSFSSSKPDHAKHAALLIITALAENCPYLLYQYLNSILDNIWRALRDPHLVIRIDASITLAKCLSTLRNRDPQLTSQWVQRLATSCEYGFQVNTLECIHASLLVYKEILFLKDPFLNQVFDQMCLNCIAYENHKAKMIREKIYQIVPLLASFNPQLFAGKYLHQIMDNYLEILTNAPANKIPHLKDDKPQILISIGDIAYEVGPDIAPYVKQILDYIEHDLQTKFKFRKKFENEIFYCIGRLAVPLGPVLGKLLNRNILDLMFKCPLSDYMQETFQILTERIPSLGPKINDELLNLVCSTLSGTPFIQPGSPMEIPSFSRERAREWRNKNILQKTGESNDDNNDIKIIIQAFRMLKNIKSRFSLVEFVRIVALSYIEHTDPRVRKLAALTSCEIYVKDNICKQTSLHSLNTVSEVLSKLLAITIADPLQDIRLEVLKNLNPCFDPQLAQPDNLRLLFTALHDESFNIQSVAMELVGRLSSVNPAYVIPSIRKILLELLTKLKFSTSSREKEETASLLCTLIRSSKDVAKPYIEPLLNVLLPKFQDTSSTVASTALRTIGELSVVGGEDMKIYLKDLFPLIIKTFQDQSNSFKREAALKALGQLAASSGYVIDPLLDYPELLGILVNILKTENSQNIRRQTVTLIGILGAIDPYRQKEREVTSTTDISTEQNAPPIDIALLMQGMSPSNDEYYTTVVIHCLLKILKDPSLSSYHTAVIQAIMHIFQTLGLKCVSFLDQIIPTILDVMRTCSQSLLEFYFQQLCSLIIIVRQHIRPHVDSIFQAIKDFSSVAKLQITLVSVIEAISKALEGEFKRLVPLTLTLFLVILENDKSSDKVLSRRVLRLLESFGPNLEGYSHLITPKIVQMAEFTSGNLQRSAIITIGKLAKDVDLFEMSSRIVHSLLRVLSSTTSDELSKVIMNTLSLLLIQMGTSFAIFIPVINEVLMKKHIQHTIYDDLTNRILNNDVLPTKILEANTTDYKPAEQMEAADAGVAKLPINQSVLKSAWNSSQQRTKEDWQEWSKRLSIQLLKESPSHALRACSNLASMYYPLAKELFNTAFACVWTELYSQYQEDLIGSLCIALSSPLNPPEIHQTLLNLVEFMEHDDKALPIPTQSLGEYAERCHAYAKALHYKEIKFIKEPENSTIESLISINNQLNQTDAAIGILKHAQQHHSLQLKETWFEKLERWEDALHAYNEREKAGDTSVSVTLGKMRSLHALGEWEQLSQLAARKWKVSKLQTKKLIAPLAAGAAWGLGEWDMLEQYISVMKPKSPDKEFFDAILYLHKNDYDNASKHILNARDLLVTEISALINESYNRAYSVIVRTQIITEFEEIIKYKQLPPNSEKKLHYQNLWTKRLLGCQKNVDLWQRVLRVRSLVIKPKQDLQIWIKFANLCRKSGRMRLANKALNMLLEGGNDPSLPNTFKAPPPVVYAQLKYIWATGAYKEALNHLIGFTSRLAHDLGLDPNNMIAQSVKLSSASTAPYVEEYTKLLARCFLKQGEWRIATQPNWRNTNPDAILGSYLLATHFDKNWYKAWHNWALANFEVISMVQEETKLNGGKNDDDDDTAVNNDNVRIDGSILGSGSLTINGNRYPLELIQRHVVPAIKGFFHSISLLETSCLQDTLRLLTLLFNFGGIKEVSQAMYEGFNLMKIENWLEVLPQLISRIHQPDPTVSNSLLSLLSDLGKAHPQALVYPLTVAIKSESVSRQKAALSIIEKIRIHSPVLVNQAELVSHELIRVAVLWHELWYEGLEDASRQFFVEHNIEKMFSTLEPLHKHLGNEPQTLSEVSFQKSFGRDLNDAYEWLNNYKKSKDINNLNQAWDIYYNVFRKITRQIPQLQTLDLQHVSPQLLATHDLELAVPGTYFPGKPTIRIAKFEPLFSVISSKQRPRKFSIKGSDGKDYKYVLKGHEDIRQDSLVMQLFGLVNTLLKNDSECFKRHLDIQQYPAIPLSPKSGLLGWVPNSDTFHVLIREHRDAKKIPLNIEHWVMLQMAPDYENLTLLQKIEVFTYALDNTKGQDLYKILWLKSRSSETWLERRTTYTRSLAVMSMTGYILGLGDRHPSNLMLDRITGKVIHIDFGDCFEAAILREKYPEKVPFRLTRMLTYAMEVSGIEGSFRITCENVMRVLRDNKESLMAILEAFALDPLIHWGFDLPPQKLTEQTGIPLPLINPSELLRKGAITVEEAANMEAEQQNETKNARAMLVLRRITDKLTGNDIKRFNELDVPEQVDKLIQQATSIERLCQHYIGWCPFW

binding [1]: binds
binding (GFP-Ait1 (S. cerevisiae)): binds
Molecule: Tor1 (from UniProt P35169 1-2470)

binding (GFP-Ait1 (S. cerevisiae)): binds
Molecule: Kog1 (from UniProt P38873 1-1557)

binding [1]: binds
B1: Npr2 (protein, UniProt P39923 1-615)
chain: MLSYFQGFVPIHTIFYSVFHPTEGSKIKYEFPPNNLKNHGINFNTFKNYIIPKPILCHKLITFKYGTYRIVCYPVTINSPIYARNFFSFNFVFVFPYDCETSPYEPAITRLGKMFKVLEEQNQLLSKSERDPVFFDLKVLENSTTTPSTAGPSSTPNPSSNTTPTHPTSEKDTKDMRSSRYSDLIKDLGLPQSAFSIQDLLMRIFQDLNNYSECLIPIDEGNAVDIKIFPLLRPPTTCVSLEDVPLSSVNLKKIIDVNWDPTMMSIVPYIDGLNSIAKISKLSNSDPGLVIECIRHLIYYKCVTLSDIFQFSNIYAPSSLIRNFLTDPLMASDCQSYVTFPEVSKISNLPLNKSLGSGDQDSPSFSVRRKSKSSSIPSNPDSRTTSFSSTSRVSQNSSLNSSFSSIYKDWRQSQTSCSSSNIHVINNRNRFLPTRSCLFDLYRSLSQGQTLKTWYESKYMILKENNIDIRRFITFGLEKRIIYRCYSFPVMINAGSREPKEMTPIITKDLVNNDKLLEKRNHNHLLSATGSRNTAQSGNLKPERPSKVSFEMQRVSSLATGKSTMPKLSDEEEGILEESIRNAETFDKICVLLSKPKLEVESYLNELGEFKVINS

binding [1]: binds
B2: Syg1 (protein, UniProt P40528 1-902)
chain: MKFADHLTESAIPEWRDKYIDYKVGKKKLRRYKEKLDAEEEQSSSYRSWMPSVSVYQTAFQQREPGKSRSDGDYRSGPAFKKDYSALQREFVADFIEDWLISFQLSKCNEFYLWLLKECDKKFEVLQSQLHYYSLQKNYERDNLNRSSSNVDMSTSLYAAGLAGRSDSRVNSIDSDSRSVMYGSMPCTKEAKKPRLSLLAYCQKVLKDNRLLPSWPKRGFSLLQDLRQDASSRGRETFAFGASFLETMTTTQARNLLSNAIIEYYLYLQLVKSFRDINVTGFRKMVKKFDKTCHTRELTTFMSYARTHYTLFKHADANVQLVAQKMQQITSSQPTPTSELSSAQRDKEPITWLETQITEWFTTALTNSPKDRKHNTHKLKKLTIQYSISEQMVHRNNRSIVQMLVVGLGIGVSMTLITYTLYLGISSEETSFTHKILFPLWGGWYMVLLIAFLFLVNCFIWHRTGINYRFIMLGEIQSKNGTQFFNNDFATSKIPLKLYFLTFFIVPCAVCSMLSFALEKLTPLGFLYIGIVSFLFLCPSGLIPYWDKVVHTRKWLVVTLIRLMMSGFFPVEFGDFFLGDIICSLTYSIADIAMFFCVYSHTPNNLCGSSHSRAMGVLSCLPSYWRFMQCLRRFADSGDWFPHLLNAAKYTLGIAYNATLCAYRLSDRSEQRRTPFIVCATLNSILTSAWDLVMDWSFAHNTTSYNWLLRDDLYLAGKKNWENGSYSFSRKLVYYFAMIWDILIRFEWIVYAIAPQTIQQSAVTSFILALLEVLRRFVWIIFRVENEHVANVHLFRVTGDAPLPYPIAQVGDDSMDSSDLGSKAFSSLNDIPITPSHDNNPHSFAEPMPAYRGTFRRRSSVFENISRSIPWAHATDFQRPTVNTVDDRSPETDSESEVESIM

binding [1]: binds
B3: Ego1 (protein, UniProt Q02205 1-184)
chain: MGAVLSCCRNHSGEENEALLREQQAGYGSQGNANDEYDAEQMRLKEHEHEQKLLAREQELRDIVANTNDKLIDISMINNSGIVIQGTDLQEALDKRQQEEGGDSREDERSAGDDNLSGHSVPSSGSAQATTHQTAPRTNTFTLLTSPDSAKISKEQLKKLHSNILNEIFSQSQVNKPGPLTVPF

binding [1]: binds
B4: Vnx1 (protein, UniProt P42839 1-908)
chain: MAKNNHISASGNSTSGDHRLKEEVLTPTTSASTPHRIFSVDDDPKEIQNDIRYLEGLHEGLKFALHANKSKRSVSSQSPIVHSSNNTLHHHEHQQHLPPTLESLSSKSHSVPDLNTATPSSPKRMHSSIRELPHDDNDDEDANDDSRFIIHDSHGHDLLIDEINCQSPSHLENNDQASNASSTESFTLRERQDAINETHPFGIRIWKPALYKKHRSVQRTAAQDIHETQLKTITWEVTCSNVLWFILFGFPIAILFYSAAIVVFLLGGGGLVTNSAKEYSKCLYKLANYFLWPFGKMVYLLQDEQYLQEDKDEGISMQQFYNWVTSYSNRLVFHQSQAKFQQREDHPAPATESSSLMPPANTTATPLNSNHPSYNSIRHEIPHAAAQRRYFGRGKWSWGRVLFYTIFHLVLQPILAVLSLCLWLLVFTIPMSNVLWQIMYHCRRHPLALGFKYVENSSQSHENEITQQQLNKNILLCTFRAAGWHYYKYTVDGTNVIVVNLISIVFFTIFDFYVLKNFLHWKTWFTYESSIFILCLTSTIPLAFYIGQAVASISAQTSMGVGAVINAFFSTIVEIFLYCVALQQKKGLLVEGSMIGSILGAVLLLPGLSMCGGALNRKTQRYNPASAGVSSALLIFSMIVMFVPTVLYEIYGGYSVNCADGANDRDCTFSHPPLKFNRLFTHVIQPMSISCAIVLFCAYIIGLWFTLRTHAKMIWQLPIADPTSTAPEQQEQNSHDAPNWSRSKSTCILLMSTLLYAIIAEILVSCVDAVLEDIPSLNPKFLGLTIFALIPNTTEFLNAISFAIHGNVALSMEIGSAYALQVCLLQIPSLVIYSIFYTWNVKKSMINIRTQMFPLVFPRWDIFGAMTSVFMFTYLYAEGKSNYFKGSMLILLYIIIVVGFYFQGALSE

binding [1]: binds
binding (GFP-Ait1 (S. cerevisiae)): binds
B5: Tco89 (protein, UniProt Q08921 1-799)
chain: MVHRGRTLKSDTDVTSLNASTVSHQSKPFRQFSTRSRAKSNASFKGLRRVLTHDGTLDNDYFNKHNVSQKCKSSDALFRKRTISGLNMTALTRVKSNQGKRSASFHSPVHNTLLSPKNSSHSNTGTAGFGLKPRRSKSTQSVLSLRDAQESKKSESTTDEEVECFSEDNIEDGKVNNDKVIAEHVMPEEKKNVQQLNQNELQSPDSIDEQEEDKSGTDGKENHRAVSLPLPHLSSNNYFGESSHSIEHQKDGETSPSSIETKLNATSVINEEGQSKVTKEADIDDLSSHSQNLRASLVKAGDNISEAPYDKEKKILDVGNTLAAHKSNQKPSHSDEQFDQEDHIDAPRSNSSRKSDSSFMSLRRQSSKQHKLLNEEEDLIKPDDISSAGTKDIEGHSLLENYAPNMILSQSTGVERRFENSSSIQNSLGNEIHDSGEHMASGDTFNELDDGKLRKSKKNGGRSQLGQNIPNSQSTFPTIANIGSKDNNVPQHNFSTSISSLTNNLRRAAPESFHGSRMNNIFHKKGNQNLLLRSNDLNKNSAAPASPLSNEHITSSTNSGSDANRQSNSGAKFNSFAQFLKSDGIDAESRTQRKLWLQRENSIMDLSSQNDGSDSIFMAGNIDAKREFERISHEYSNVKRFYNPLDEALLRVQPIITGNANNIRKKSHNDAQSIAHSSSDTDHKDEDDLLFTNYDKKFDDLYPHLASAKIQAVLSGIWKSESYLFNKDVNPINKNRTTSTNHSVGHTASQNARNLLRGPMGSSTTLHHQRVINSLQPTTRAVNRRMENVGYMHTQPQQR

binding [1]: binds
B6: Gtr2 (protein, UniProt P53290 1-341)
chain: MSLEATDSKAMVLLMGVRRCGKSSICKVVFHNMQPLDTLYLESTSNPSLEHFSTLIDLAVMELPGQLNYFEPSYDSERLFKSVGALVYVIDSQDEYINAITNLAMIIEYAYKVNPSINIEVLIHKVDGLSEDFKVDAQRDIMQRTGEELLELGLDGVQVSFYLTSIFDHSIYEAFSRIVQKLIPELSFLENMLDNLIQHSKIEKAFLFDVNSKIYVSTDSNPVDIQMYEVCSEFIDVTIDLFDLYKAPVLRNSQKSSDKDNVINPRNELQNVSQLANGVIIYLRQMIRGLALVAIIRPNGTDMESCLTVADYNIDIFKKGLEDIWANARASQAKNSIEDDV

binding [1]: binds
B7: GFP-Ait1 (natural protein, S. cerevisiae, UniProt Q12301 1-547, looked up)
chain: T1 sequence
notes: Ait1 (Ydl180w), GPCR-like protein of the vacuolar membrane, S. cerevisiae; The strain list is in Supplementary file 3; source: S. cerevisiae (W303) strain carrying GFP-Ait1, in lysate; not shown: GFP, N-terminal, kept

binding [1]: binds
B8: Rtg2 (protein, UniProt P32608 1-588)
chain: MSTLSDSDTETEVVSRNLCGIVDIGSNGIRFSISSKAAHHARIMPCVFKDRVGLSLYEVQYNTHTNAKCPIPRDIIKEVCSAMKRFKLICDDFGVPETSVRVIATEATRDAINADEFVNAVYGSTGWKVEILGQEDETRVGIYGVVSSFNTVRGLYLDVAGGSTQLSWVISSHGEVKQSSKPVSLPYGAGTLLRRMRTDDNRALFYEIKEAYKDAIEKIGIPQEMIDDAKKEGGFDLWTRGGGLRGMGHLLLYQSEGYPIQTIINGYACTYEEFSSMSDYLFLKQKIPGSSKEHKIFKVSDRRALQLPAVGLFMSAVFEAIPQIKAVHFSEGGVREGSLYSLLPKEIRAQDPLLIASRPYAPLLTEKYLYLLRTSIPQEDIPEIVNERIAPALCNLAFVHASYPKELQPTAALHVATRGIIAGCHGLSHRARALIGIALCSRWGGNIPESEEKYSQELEQVVLREGDKAEALRIVWWTKYIGTIMYVICGVHPGGNIRDNVFDFHVSKRSEVETSLKELIIDDANTTKVKEESTRKNRGYEVVVRISKDDLKTSASVRSRIITLQKKVRKLSRGSVERVKIGVQFYEE
